Data published in PMC11267527.
Results are given in words; binding and its absence hold for the method and conditions named. Binding seen in cells or lysates may run through a third protein. Some results given as binding are weak or reduced against the parent protein; the word gives no strength.

The chains behind the UniProt entries cited, without tags or fusion partners.
UniProt Q9UJ55: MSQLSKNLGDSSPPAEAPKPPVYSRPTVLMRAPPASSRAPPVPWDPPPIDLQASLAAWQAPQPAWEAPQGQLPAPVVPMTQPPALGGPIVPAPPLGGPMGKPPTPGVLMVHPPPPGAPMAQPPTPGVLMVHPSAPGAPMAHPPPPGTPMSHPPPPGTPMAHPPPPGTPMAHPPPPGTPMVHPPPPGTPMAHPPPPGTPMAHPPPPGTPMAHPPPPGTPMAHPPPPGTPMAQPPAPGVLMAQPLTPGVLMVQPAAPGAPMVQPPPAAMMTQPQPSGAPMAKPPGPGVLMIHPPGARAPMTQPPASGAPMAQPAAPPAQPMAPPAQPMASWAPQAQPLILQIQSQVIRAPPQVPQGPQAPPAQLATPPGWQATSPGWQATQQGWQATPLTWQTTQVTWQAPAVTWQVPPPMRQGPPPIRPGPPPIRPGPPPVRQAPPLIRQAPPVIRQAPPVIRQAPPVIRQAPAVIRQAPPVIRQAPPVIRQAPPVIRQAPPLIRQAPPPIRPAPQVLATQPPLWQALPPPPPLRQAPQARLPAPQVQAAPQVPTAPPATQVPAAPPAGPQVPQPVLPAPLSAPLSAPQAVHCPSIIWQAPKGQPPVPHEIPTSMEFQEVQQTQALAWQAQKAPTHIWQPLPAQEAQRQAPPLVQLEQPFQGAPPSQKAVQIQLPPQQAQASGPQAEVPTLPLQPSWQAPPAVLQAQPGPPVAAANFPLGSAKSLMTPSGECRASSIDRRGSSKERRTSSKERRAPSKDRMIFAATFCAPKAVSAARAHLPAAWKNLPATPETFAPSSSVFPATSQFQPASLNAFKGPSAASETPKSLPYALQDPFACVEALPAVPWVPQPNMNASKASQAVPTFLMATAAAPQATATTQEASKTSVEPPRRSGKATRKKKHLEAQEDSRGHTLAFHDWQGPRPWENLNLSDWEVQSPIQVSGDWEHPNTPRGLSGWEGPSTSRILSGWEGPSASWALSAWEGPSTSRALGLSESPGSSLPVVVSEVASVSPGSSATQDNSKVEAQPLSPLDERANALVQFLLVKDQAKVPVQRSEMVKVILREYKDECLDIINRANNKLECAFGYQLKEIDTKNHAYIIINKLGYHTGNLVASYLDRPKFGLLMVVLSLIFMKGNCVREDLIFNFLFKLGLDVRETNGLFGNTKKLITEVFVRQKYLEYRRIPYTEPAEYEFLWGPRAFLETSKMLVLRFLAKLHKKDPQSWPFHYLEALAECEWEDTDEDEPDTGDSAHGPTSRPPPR
UniProt Q16637: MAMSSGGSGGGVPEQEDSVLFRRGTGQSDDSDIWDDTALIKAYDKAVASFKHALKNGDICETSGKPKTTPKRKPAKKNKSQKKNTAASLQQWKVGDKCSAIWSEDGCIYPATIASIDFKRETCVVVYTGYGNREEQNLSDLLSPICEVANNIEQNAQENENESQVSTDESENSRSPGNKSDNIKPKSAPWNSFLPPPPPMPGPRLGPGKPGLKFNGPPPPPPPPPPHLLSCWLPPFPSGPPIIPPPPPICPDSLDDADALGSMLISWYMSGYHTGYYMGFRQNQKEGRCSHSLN

Target: WT GFP-MAGEL2 (GFPspark fused N-terminally to full-length wild-type human MAGEL2) (human) (UniProt Q9UJ55)
Experiment: co-IP; GFP-CoIP with western blot: GFPspark-MAGEL2 fusions in HEK293T lysate, mouse anti-GFP antibody overnight at 4 C, Protein A beads, elution in Laemmli buffer, blots for endogenous proteins (n = 3)

Substance: survival motor neuron protein (SMN) (from UniProt Q16637 1-294)
- binding: binds
